Measured values as given in patent US20250154171A1, “RAS INHIBITORS” (Revolution Medicines, Inc., priority 2023, published 2025).
Some entries share one result that the patent states for a list of compounds.

Sequences of proteins named here, by UniProt entry; tags and fusion partners are left off. A change or cut given only in a name is not applied to a line headed by its entry. Residues count along the entry.
UniProt P01116, 1-188 isoform P01116-2 G12V: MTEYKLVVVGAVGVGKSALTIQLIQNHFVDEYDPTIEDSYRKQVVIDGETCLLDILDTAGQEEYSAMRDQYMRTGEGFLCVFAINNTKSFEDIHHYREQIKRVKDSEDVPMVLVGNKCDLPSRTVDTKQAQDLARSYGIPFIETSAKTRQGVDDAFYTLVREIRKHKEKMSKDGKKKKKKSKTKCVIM
UniProt P62937, whole entry: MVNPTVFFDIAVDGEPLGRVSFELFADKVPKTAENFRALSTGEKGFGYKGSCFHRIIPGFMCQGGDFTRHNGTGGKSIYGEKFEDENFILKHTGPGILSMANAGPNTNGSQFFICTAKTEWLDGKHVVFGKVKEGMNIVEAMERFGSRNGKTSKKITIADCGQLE

Key:
K-RasG12V = K-RasG12V (Homo sapiens, UniProt P01116+P62937, G12V); experiment: Disruption of BRAF RBD interaction with K-Ras (TR-FRET / MOA assay), K-RasG12V; format: biochemical; settings: TR-FRET with cyclophilin A and GST-BRAF RBD, read-out: IC50 with respect to K-RasG12V (disruption of BRAF RBD interaction)
Capan-1 (K-Ras G12V) = experiment: CellTiter-Glo cell viability assay, Capan-1; format: cell-based, human; settings: 5-day treatment, Capan-1 versus A375

SMILES | IC50 (K-RasG12V) | decrease in cell viability with respect to KRAS G12V (Capan-1) versus wild-type KRAS (A375) (Capan-1 (K-Ras G12V))
CO[C@@H](C)c1ncc(C2CCN(C3CC3)CC2)cc1-c1c2c3cc(ccc3n1CCOC1CCOC(C)(C)C1)-c1csc(n1)[C@@H](N1CC3(CCOC3)C1)[C@H](NC(=O)[C@H]1OCC1(C)C)C(=O)N1CCC[C@H](N1)C(=O)OCC(C)(C)C2 (mixture of isomers) [Example A102] | < 1 µM | greater decrease in cell viability
CO[C@@H](C)c1ncc(C2CCN(C3CC3)CC2)cc1-c1c2c3cc(ccc3n1CCO[C@H]1CCOC(C)(C)C1)-c1csc(n1)[C@@H](N1CC3(CCCOC3)C1)[C@H](NC(=O)[C@@H]1OCC1(C)C)C(=O)N1CCC[C@H](N1)C(=O)OCC(C)(C)C2 (racemic) [Example A104] | < 1 µM | greater decrease in cell viability
CO[C@@H](C)c1ncc(C2CCN(C3CC3)CC2)cc1-c1c2c3cc(ccc3n1CCO[C@H]1CCOC(C)(C)C1)-c1csc(n1)[C@@H](N1CC3(CCC3)C1)[C@H](NC(=O)[C@H]1OCC1(C)C)C(=O)N1CCC[C@H](N1)C(=O)OCC(C)(C)C2 (racemic) [Example A105] | < 1 µM | greater decrease in cell viability
CO[C@@H](C)c1ncc(C2CCN(C3CC3)CC2)cc1-c1c2c3cc(ccc3n1CCO[C@H]1CCOC(C)(C)C1)-c1csc(n1)[C@@H](N1CC3(CCC3)C1)[C@H](NC(=O)[C@@H]1OCC1(C)C)C(=O)N1CCC[C@H](N1)C(=O)OCC(C)(C)C2 (racemic) [Example A106] | < 1 µM | greater decrease in cell viability
CO[C@@H](C)c1ncc(C2CCN(C3CC3)CC2)cc1-c1c2c3cc(ccc3n1CCO[C@H]1CCOC(C)(C)C1)-c1csc(n1)[C@@H](N1CC3(COC3)C1)[C@H](NC(=O)[C@H]1OCC1(C)C)C(=O)N1N[C@H](C(=O)OCC(C)(C)C2)C2CC1C2 (racemic) [Example A107] | < 1 µM | greater decrease in cell viability
CO[C@@H](C)c1ncc(C2CCN(C3CC3)CC2)cc1-c1c2c3cc(ccc3n1CCO[C@H]1CCOC(C)(C)C1)-c1csc(n1)[C@@H](N1CC3(COC3)C1)[C@H](NC(=O)[C@@H]1OCC1(C)C)C(=O)N1N[C@H](C(=O)OCC(C)(C)C2)C2CC1C2 (racemic) [Example A108] | < 1 µM | greater decrease in cell viability
CCO[C@@H]1c2nc(cs2)-c2ccc3c(c2)c(c(-c2cc(N4CCN(C5CC5)CC4)cnc2[C@H](C)OC)n3CCOC2CCOCC2)CC(C)(C)COC(=O)C2CCCN(N2)C(=O)[C@H]1NC(=O)C12CC(C)(C1)C(C)(C)O2 (mixture of isomers) [Example A110] | < 1 µM | greater decrease in cell viability
CO[C@@H](C)c1ncccc1-c1c2c3cc(ccc3n1C1CN(C3CC3)C1)-c1csc(n1)[C@@H](N1CC(C)(OC)C1)[C@H](NC(=O)[C@H]1[C@H](C)[C@@H]1C)C(=O)N1N[C@H](C(=O)OCC(C)(C)C2)C2CC1C2 (racemic) [Example A111] | < 1 µM | greater decrease in cell viability
CO[C@@H](C)c1ncccc1-c1c2c3cc(ccc3n1C1CN(C3CC3)C1)-c1csc(n1)[C@@H](N1CC(C)(OC)C1)[C@H](NC(=O)[C@H]1[C@H](C)[C@@H]1C)C(=O)N1CCC[C@H](N1)C(=O)OCC(C)(C)C2 (racemic) [Example A112] | < 1 µM | greater decrease in cell viability

The next lines start with results.

IC50 (K-RasG12V) | SMILES | decrease in cell viability with respect to KRAS G12V (Capan-1) versus wild-type KRAS (A375) (Capan-1 (K-Ras G12V))
< 1 µM | CO[C@@H](C)c1ncc(C2CN(C3CC3)C2)cc1-c1c2c3cc(ccc3n1CCOC1CCOCC1)-c1csc(n1)[C@@H](N1CC(C)(OC)C1)[C@H](NC(=O)[C@@H]1OC[C@@H]1C)C(=O)N1CCC[C@H](N1)C(=O)OCC(C)(C)C2 (racemic) [Example A94] | greater decrease in cell viability
< 1 µM | CO[C@@H](C)c1ncc([C@H]2CCN(C3CC3)C2)cc1-c1c2c3cc(ccc3n1CCOC1CCOCC1)-c1csc(n1)[C@@H](N1CC(C)(OC)C1)[C@H](NC(=O)[C@@H]1OC[C@@H]1C)C(=O)N1CCC[C@H](N1)C(=O)OCC(C)(C)C2 (racemic) [Example A95] | greater decrease in cell viability
< 1 µM | CO[C@@H](C)c1ncc([C@@H]2CCN(C3CC3)C2)cc1-c1c2c3cc(ccc3n1CCOC1CCOCC1)-c1csc(n1)[C@@H](N1CC(C)(OC)C1)[C@H](NC(=O)[C@@H]1OC[C@@H]1C)C(=O)N1CCC[C@H](N1)C(=O)OCC(C)(C)C2 (racemic) [Example A96] | greater decrease in cell viability
< 1 µM | CO[C@@H](C)c1ncc([C@H]2CCN(C3COC3)C2)cc1-c1c2c3cc(ccc3n1CCOC1CCOCC1)-c1csc(n1)[C@@H](N1CC3(COC3)C1)[C@H](NC(=O)[C@@H]1OC[C@@H]1C)C(=O)N1CCC[C@H](N1)C(=O)OCC(C)(C)C2 (racemic) [Example A97] | greater decrease in cell viability
< 1 µM | CO[C@@H](C)c1ncc([C@@H]2CCN(C3COC3)C2)cc1-c1c2c3cc(ccc3n1CCOC1CCOCC1)-c1csc(n1)[C@@H](N1CC3(COC3)C1)[C@H](NC(=O)[C@@H]1OC[C@@H]1C)C(=O)N1CCC[C@H](N1)C(=O)OCC(C)(C)C2 (racemic) [Example A98] | greater decrease in cell viability
< 1 µM | CO[C@@H](C)c1ncc(C2CN(C3CC3)C2)cc1-c1c2c3cc(ccc3n1CCOC1CCOCC1)-c1csc(n1)[C@@H](N1CC3(COC3)C1)[C@H](NC(=O)[C@@H]1OC[C@@H]1C)C(=O)N1CCC[C@H](N1)C(=O)OCC(C)(C)C2 (racemic) [Example A99] | greater decrease in cell viability
< 1 µM | CO[C@@H](C)c1ncc([C@H]2CCN(C3CC3)C2)cc1-c1c2c3cc(ccc3n1CCOC1CCOCC1)-c1csc(n1)[C@@H](N1CC3(COC3)C1)[C@H](NC(=O)[C@@H]1OC[C@@H]1C)C(=O)N1CCC[C@H](N1)C(=O)OCC(C)(C)C2 (racemic) [Example A100] | greater decrease in cell viability
< 1 µM | CO[C@@H](C)c1ncc([C@@H]2CCN(C3CC3)C2)cc1-c1c2c3cc(ccc3n1CCOC1CCOCC1)-c1csc(n1)[C@@H](N1CC3(COC3)C1)[C@H](NC(=O)[C@@H]1OC[C@@H]1C)C(=O)N1CCC[C@H](N1)C(=O)OCC(C)(C)C2 (racemic) [Example A101] | greater decrease in cell viability
< 1 µM | CO[C@@H](C)c1ncc(C2CCN(C3CC3)CC2)cc1-c1c2c3cc(ccc3n1CCOC1CCOCC1)-c1csc(n1)[C@@H](N1CC3(CCCOC3)C1)[C@H](NC(=O)[C@@H]1OCC1(C)C)C(=O)N1CCC[C@H](N1)C(=O)OCC(C)(C)C2 (racemic) [Example A103] | greater decrease in cell viability
